Source: US4050989A, “Process of preparing desacyl-pepsidine with bacillus pumilus” (Eisai Co., Ltd., priority 1974, dated 1977)
For at least one compound, name, drawing or mass did not settle the structure.

By UniProt entry, the sequences of proteins in these tests, tags left out. Residues count along the entry.
UniProt P00791, 60-385: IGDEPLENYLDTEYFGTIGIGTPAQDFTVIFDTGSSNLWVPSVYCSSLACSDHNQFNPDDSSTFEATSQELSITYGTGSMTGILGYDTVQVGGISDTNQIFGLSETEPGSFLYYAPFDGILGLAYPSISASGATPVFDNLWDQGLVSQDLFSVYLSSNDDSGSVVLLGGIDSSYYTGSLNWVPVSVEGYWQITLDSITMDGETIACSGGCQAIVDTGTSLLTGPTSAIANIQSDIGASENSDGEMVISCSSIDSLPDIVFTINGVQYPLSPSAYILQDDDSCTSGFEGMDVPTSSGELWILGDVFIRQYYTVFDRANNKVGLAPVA

Molecular target: pepsin (Sus scrofa, UniProt P00791)
Test: Pepsin-inhibitory activity (method of Murao and Satoi)
Assay type: biochemical
Protocol: viii. Pepsin-inhibitory activity: Pepsin-inhibitory activity of DA-pepsidine was determined using the method reported by S. Murao and S. Satoi in Agr. Biol. Chem. Japan 34 (8) 1265 - 7 (1970). […] While, that of pepsidine C is 0.86 μg.

## CC(C)CC(NC(=O)[C@H](C)NC(=O)CC(O)C(CC(C)C)NC(=O)[C@@H](NC(=O)[C@@H](N)C(C)C)C(C)C)C(O)CC(=O)O (stereo partly shown) [DA-pepsidine, valyl-valyl-4-amino-3-hydroxy-6-methyl-heptanoyl alanyl-4-amino-3-hydroxy-6-methyl-heptanoic acid]
  Pepsin-inhibitory activity (in words): strong pepsin-inhibitory activity
